Source: the supplement of paper PMC4604168 (melanoma cell lines)
The list shows a part of the results. Many values rest on one well or one pass, so single values are uncertain.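 The apoptosis fraction was the count of cleaved-PARP antibody-stained nuclei relative to all DNA-stained nuclei, imaged in 1,536-well plates. Screening doses were set so most cells survived, and baseline and induced cleaved-PARP levels vary greatly across cell lines.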

Legend:
Test in all cases: cleaved PARP positive nuclei fraction relative to DMSO control; melanoma cells; higher = more apoptosis
Settings in all cases: library dose: low library concentration; 72 h
WM115 = tested on: WM115
WM1716 = tested on: WM1716
WM1745 = tested on: WM1745
WM3526 = tested on: WM3526
WM3619 = tested on: WM3619
WM451Lu = tested on: WM451Lu

| SMILES | cleaved PARP positive nuclei fraction (WM115) [%] | cleaved PARP positive nuclei fraction (WM1716) [%] | cleaved PARP positive nuclei fraction (WM1745) [%] | cleaved PARP positive nuclei fraction (WM3526) [%] | cleaved PARP positive nuclei fraction (WM3619) [%] | cleaved PARP positive nuclei fraction (WM451Lu) [%] |
| --- | --- | --- | --- | --- | --- | --- |
| C=CCNC1=C2C[C@@H](C)C[C@H](OC)[C@H](O)[C@@H](C)/C=C(\C)[C@H](OC(N)=O)[C@@H](OC)/C=C\C=C(/C)C(=O)NC(=CC1=O)C2=O [Tanespimycin] + O=c1cc(-c2cccc3c2Sc2ccccc2S3)oc(N2CCOCC2)c1 [KU55933] (first compound 0.002 µM, partner dose 1 µM) | 202 | 221 | 124 | 96.2 | 164 | 115 |
| Clc1ccc(Nc2nnc(Cc3ccncc3)c3ccccc23)cc1 [vatalanib] + O=C(O)C(=O)Nc1sc2c(c1C(=O)O)CCNC2 [TCS401] (first compound 2 µM, partner dose 1.66667 µM) | 90.9 | 113 | 117 | 63.3 | 231 | 194 |
| OCc1c[nH]c2ccccc12 [Indole-3-carbinol] + C[C@]1(c2nc3c(C(N)=O)cccc3[nH]2)CCCN1 [Veliparib] (first compound 0.8 µM, partner dose 1.4 µM) | 136 | 131 | 109 | 46.1 | 122 | 63.1 |
| CC1(C)NC(=O)N(c2ccc([N+](=O)[O-])c(C(F)(F)F)c2)C1=O [nilutamide] + CCc1ccc(CCOc2ccc(CC3SC(=O)NC3=O)cc2)nc1 [pioglitazone] (first compound 1 µM, partner dose 2 µM) | 88.1 | 91.3 | 108 | 70.8 | 110 | 233 |
| C#Cc1cccc(Nc2ncnc3cc(OCCOC)c(OCCOC)cc23)c1 [erlotinib] + Nc1cccc2c1CN(C1CCC(=O)NC1=O)C2=O [lenalidomide] (first compound 0.8 µM, partner dose 1 µM) | 165 | 72.8 | 106 | 79.4 | 106 | 75.4 |
| COc1cc(Nc2ncc(F)c(Nc3ccc4c(n3)NC(=O)C(C)(C)O4)n2)cc(OC)c1OC [Tamatinib] + COc1cc2c(Oc3ccc4[nH]c(C)cc4c3F)ncnc2cc1OCCCN1CCCC1 [cediranib] (first compound 0.4 µM, partner dose 0.4 µM) | 108 | 64.3 | 226 | 60.7 | 102 | 61.9 |
| Cc1ccc(NC(=O)c2cccc(N(C)C)c2)cc1NC(=O)c1ccc(O)cc1 + O=C1NC(=O)/C(=C/c2ccc(-c3ccc(F)cc3O)o2)S1 [AS252424] (first compound 2 µM, partner dose 1 µM) | 144 | 110 | 99.3 | 78.9 | 65.4 | 514 |
| OCc1c[nH]c2ccccc12 [Indole-3-carbinol] + CC1(C)NC(=O)N(c2ccc([N+](=O)[O-])c(C(F)(F)F)c2)C1=O [nilutamide] (first compound 0.8 µM, partner dose 1 µM) | 74.9 | 40.6 | 117 | 61 | 102 | 114 |
| OCc1c[nH]c2ccccc12 [Indole-3-carbinol] + Cn1cc(/C=C2\C(=O)Nc3cccnc32)c2ccccc21 [GW441756] (first compound 0.8 µM, partner dose 0.4 µM) | 72.1 | 71.6 | 169 | 213 | 88.7 | 67.3 |

As entered above:
In cleaved PARP positive nuclei fraction (WM3526) [%], OCc1c[nH]c2ccccc12 [Indole-3-carbinol] + Cn1cc(/C=C2\C(=O)Nc3cccnc32)c2ccccc21 [GW441756] (first compound 0.8 µM, partner dose 0.4 µM) shows 213
In cleaved PARP positive nuclei fraction (WM1716) [%], OCc1c[nH]c2ccccc12 [Indole-3-carbinol] + CC1(C)NC(=O)N(c2ccc([N+](=O)[O-])c(C(F)(F)F)c2)C1=O [nilutamide] (first compound 0.8 µM, partner dose 1 µM) shows 40.6
